Measurements: article doi:10.1101/2023.08.12.553084
No constants are given. Whether binding was seen depends on the method and setting. Binding seen in cells or lysates may run through a third protein. A result given as binding can be weak or reduced; the word gives no strength. Where a sequence is shown, tags or fusion partners need not be part of it.

Target: T1, Foxp3 (murine, tag-fused, expressed in HEK293T cells) (mouse) (UniProt Q99JB6)
T1 sequence: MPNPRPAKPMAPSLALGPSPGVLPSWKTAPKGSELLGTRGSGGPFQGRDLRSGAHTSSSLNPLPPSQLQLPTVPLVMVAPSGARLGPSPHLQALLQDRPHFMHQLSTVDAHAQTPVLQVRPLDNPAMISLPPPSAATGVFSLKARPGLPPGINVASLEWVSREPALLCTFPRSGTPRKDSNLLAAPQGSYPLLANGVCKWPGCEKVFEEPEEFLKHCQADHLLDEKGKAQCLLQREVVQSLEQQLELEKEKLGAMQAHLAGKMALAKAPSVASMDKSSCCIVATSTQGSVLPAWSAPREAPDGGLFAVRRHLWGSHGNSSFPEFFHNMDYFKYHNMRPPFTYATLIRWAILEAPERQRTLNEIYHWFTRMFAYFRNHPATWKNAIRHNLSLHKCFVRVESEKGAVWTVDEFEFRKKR
Experiment: co-IP

| binding | Substance |
| --- | --- |
| binds | Ikzf1 ΔC mutant (C-terminal region deleted) (mouse) (domain or fragment) |
| no binding | Ikzf1 ΔN mutant (N-terminal region deleted) (mouse) (domain or fragment) |
